PubChem BioAssay AID743121 – NCATS | 2013
Shown is an unselected part of about 26,000 deposited reagents. 167 of them (0.63%) count as active. 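Calls are per gene from RSA p-values that are not deposited; an individual active-marked siRNA can sensitise only weakly.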 Further read-outs or replicates are left out here.

- Aim: 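Partners whose loss is lethal together with topoisomerase I blockade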 (primary screen)
- Cell system: MDA-MB-231 cells, a human breast cancer line
- Reagents: single siRNA against human genes, 20 nM siRNA (0.8 pmol per well)
- Time to read-out: 120 h (drug added 48 h after transfection, read 72 h later)
- Conditions: camptothecin 20 nM (about EC30) for 72 h; vehicle 0.1% DMSO in parallel plates
- Measurement: 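Cell viability by ATP luminescence (CellTiter-Glo) as % of non-targeting siRNA wells, and the log2 ratio of viability without drug over viability with camptothecin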
- Reading the numbers: log2 vehicle/camptothecin viability: higher = stronger sensitisation to camptothecin; viability with camptothecin: higher = more viable cells
- Units: viability with camptothecin in % of control
- Active means: 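Active genes have an RSA gene-level p-value below 0.001, computed from the ratios of their separate siRNAs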

What did the screen give for CLCA1 [SID164358644]?
log2 vehicle/camptothecin viability: -0.192; viability with camptothecin: 43.7; Call: inactive

With CLCA1 [SID164358647], what was measured?
log2 vehicle/camptothecin viability: -0.311; viability with camptothecin: 97.1; Call: inactive

How did the screen score CLCA1 [SID164358649]?
log2 vehicle/camptothecin viability: -0.37; viability with camptothecin: 96.1; Call: inactive

With CLCA1 [SID164358650], how do the results read?
log2 vehicle/camptothecin viability: 0.00968; viability with camptothecin: 91.8; Call: inactive

With RORC [SID164385699], how do the results read?
log2 vehicle/camptothecin viability: 0.321; viability with camptothecin: 42.3; Call: inactive

With RORC [SID164385700], what was measured?
log2 vehicle/camptothecin viability: -0.412; viability with camptothecin: 66.8; Call: inactive

What did the screen give for RORC [SID164385701]?
log2 vehicle/camptothecin viability: 0.0996; viability with camptothecin: 47; Call: inactive

How did the screen score RORC [SID164385703]?
log2 vehicle/camptothecin viability: 0.984; viability with camptothecin: 7.99; Call: inactive

With PFKFB2 [SID164380320], what was measured?
log2 vehicle/camptothecin viability: -0.475; viability with camptothecin: 79; Call: inactive

With PFKFB2 [SID164380322], what does the deposit list?
log2 vehicle/camptothecin viability: -0.161; viability with camptothecin: 82.3; Call: inactive

With PFKFB2 [SID164380323], what does the deposit list?
log2 vehicle/camptothecin viability: 0.63; viability with camptothecin: 41.7; Call: inactive

For PFKFB2 [SID164380326], what was measured?
log2 vehicle/camptothecin viability: 0.184; viability with camptothecin: 89.9; Call: inactive

With CGRRF1 [SID164412737], what was measured?
log2 vehicle/camptothecin viability: -0.156; viability with camptothecin: 97.6; Call: inactive

What is on record for CGRRF1 [SID164412738]?
log2 vehicle/camptothecin viability: 0.246; viability with camptothecin: 73.3; Call: inactive

What is on record for CGRRF1 [SID164412740]?
log2 vehicle/camptothecin viability: 0.408; viability with camptothecin: 75.3; Call: inactive

What is on record for CGRRF1 [SID164412741]?
log2 vehicle/camptothecin viability: -0.225; viability with camptothecin: 53.6; Call: inactive

Copied from the list:
CLCA1 [SID164358644], Call: inactive
Under “viability with camptothecin”, CLCA1 [SID164358649] reads 96.1
CGRRF1 [SID164412737], log2 vehicle/camptothecin viability: -0.156

More results:
What is on record for RFPL3 [SID164413103]?
log2 vehicle/camptothecin viability: -0.192; viability with camptothecin: 81.6; Call: inactive

How did the screen score RFPL3 [SID164413105]?
log2 vehicle/camptothecin viability: -0.445; viability with camptothecin: 106; Call: inactive

For RFPL3 [SID164413109], what does the deposit list?
log2 vehicle/camptothecin viability: 0.0756; viability with camptothecin: 60.3; Call: inactive

How did the screen score RFPL3 [SID164413110]?
log2 vehicle/camptothecin viability: 0.0433; viability with camptothecin: 79.6; Call: inactive

For DTX1 [SID164362323], what does the deposit list?
log2 vehicle/camptothecin viability: -0.112; viability with camptothecin: 46.7; Call: inactive

What did the screen give for DTX1 [SID164362324]?
log2 vehicle/camptothecin viability: -0.271; viability with camptothecin: 36.8; Call: inactive

How did the screen score DTX1 [SID164362325]?
log2 vehicle/camptothecin viability: -0.708; viability with camptothecin: 18; Call: inactive

Which result is listed for DTX1 [SID164362326]?
log2 vehicle/camptothecin viability: -0.126; viability with camptothecin: 97.2; Call: inactive

What is on record for SMPD1 [SID164388912]?
log2 vehicle/camptothecin viability: -0.362; viability with camptothecin: 86.6; Call: inactive

How did the screen score SMPD1 [SID164388917]?
log2 vehicle/camptothecin viability: 0.0691; viability with camptothecin: 36.8; Call: inactive

How did the screen score SMPD1 [SID164388918]?
log2 vehicle/camptothecin viability: 0.873; viability with camptothecin: 58.3; Call: inactive

For DRD5 [SID164362141], what was measured?
log2 vehicle/camptothecin viability: 0.116; viability with camptothecin: 54; Call: inactive

Which result is listed for DRD5 [SID164362142]?
log2 vehicle/camptothecin viability: -0.553; viability with camptothecin: 69.1; Call: inactive

How did the screen score DRD5 [SID164362145]?
log2 vehicle/camptothecin viability: -0.136; viability with camptothecin: 80.4; Call: inactive

How did the screen score DRD5 [SID164362149]?
log2 vehicle/camptothecin viability: 0.692; viability with camptothecin: 36.9; Call: inactive

What is on record for KCNH3 [SID164447904]?
log2 vehicle/camptothecin viability: 0.147; viability with camptothecin: 86.3; Call: inactive

What is on record for KCNH3 [SID164447905]?
log2 vehicle/camptothecin viability: 0.0107; viability with camptothecin: 72.1; Call: inactive

How did the screen score KCNH3 [SID164447907]?
log2 vehicle/camptothecin viability: 0.523; viability with camptothecin: 42.4; Call: inactive

What did the screen give for KCNH3 [SID164447908]?
log2 vehicle/camptothecin viability: -0.26; viability with camptothecin: 47; Call: inactive
